Numbering of substitutions follows the chain as printed. Numbers in names are those of the source. Where two headings read alike, the source gives them in different places. No constants are given. Whether binding was seen depends on the method and setting. For some of these results: Binding can be weak; no strength is given. For some of these results: Binding seen in cells or lysates may run through a third protein. For some of these results: Tags and fused reporters may be left off the sequences shown.

For assay [1], the target named is T1, ARL3::HA::YFP (C. reinhardtii) (UniProt A8ISN6).
T1 sequence: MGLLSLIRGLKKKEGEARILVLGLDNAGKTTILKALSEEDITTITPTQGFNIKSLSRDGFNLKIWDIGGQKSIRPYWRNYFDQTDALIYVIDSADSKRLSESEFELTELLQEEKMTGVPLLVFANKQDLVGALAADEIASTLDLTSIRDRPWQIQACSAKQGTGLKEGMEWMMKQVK
The assay can be described thus: co-IP.

In assay [2] the target is T2, ARL3^Q70L::HA::YFP (C. reinhardtii) (UniProt A8ISN6).
T2 sequence: T1 sequence with Q70L
As to the kind of experiment: co-IP.

Assay [3] has as its target T2, ARL3^Q70L::HA::YFP (C. reinhardtii). The assay can be described thus: co-IP. This is another data set of the same source.
Assay [4] has as its target T1, ARL3::HA::YFP (C. reinhardtii). As to the kind of experiment: co-IP. The source holds these as a separate data set.
Assay [5] addresses T3, ARL3^T30N::HA::YFP (C. reinhardtii) (UniProt A8ISN6).
T3 sequence: T1 sequence with T30N
The assay can be described thus: co-IP.

Assay [6] concerns the target T2, ARL3^Q70L::HA::YFP (C. reinhardtii). The assay can be described thus: co-IP. This is another data set of the same source.
For assay [7], the target named is T1, ARL3::HA::YFP (C. reinhardtii). The assay can be described thus: co-IP. The source holds these as a separate data set.
Assay [8] has as its target MBP::BBS1 (C. reinhardtii). As to the kind of experiment: pull-down.
Assay [9] addresses MBP::BBS5 (C. reinhardtii). The assay can be described thus: pull-down.

As to BBS7, the binding entry in assay [1] is given as “no binding (only in the presence of GDP)”; in [2], “no binding (only in cell body extracts)”; in assay [3], “no binding (only in cell body extracts)”; in assay [4] it was “binds”; in assay [5] it was “no binding”; in assay [6], “binds”.

Regarding IFT22, the binding result in assay [2], in [3], in [4], in assay [5] and in [6] was “no binding” each time.

With BBS4, the binding entry is listed as “no binding (only in the presence of GDP)” in [1]; “no binding (only in cell body extracts)” in assay [2]; “no binding (only in cell body extracts)” in assay [3]; “binds” in [4]; “no binding” in assay [5]; “binds” in [6].

On to BBS1, for which the binding entry in assay [1] was “no binding (only in the presence of GDP)”; in assay [2] it was “no binding (only in cell body extracts)”; in assay [3], “no binding (only in cell body extracts)”; in assay [4], “binds”; in assay [5], “no binding”; in [6], “binds”.

Turning to IFT38, the binding entry in assay [7] was “no binding”.

With phospholipase D (enzyme), the binding entry in [7] is listed as “no binding (only in the presence of GDP)”; in assay [4], “binds”; in [5], “no binding”; in assay [6] it was “binds”.

Turning to BBS5, the binding entry is reported as “no binding (only in the presence of GDP)” in [1]; “no binding (only in cell body extracts)” in assay [2]; “no binding (only in cell body extracts)” in assay [3]; “binds” in assay [4]; “no binding” in assay [5]; “binds” in assay [6].

With BBS8, the binding entry in [1] was “no binding (only in the presence of GDP)”; in assay [2], “no binding (only in cell body extracts)”; in [3] it was “no binding (only in cell body extracts)”; in [4] it was “binds”; in assay [5] it was “no binding”; in assay [6], “binds”.

For the molecule IFT70, the binding entry in assay [2], in assay [3], in [4], in assay [5] and in assay [6] was “no binding” each time.

B1: ARL3^Q70L (bacterially expressed) (protein, UniProt A8ISN6 1-177)
chain: T1 sequence with Q70L
In the case of B1, the binding result in assay [8] and in assay [9] was “binds” throughout.

B2: ARL3^T30N (bacterially expressed) (protein, UniProt A8ISN6 1-177)
chain: T1 sequence with T30N
For the molecule B2, the binding result in assay [8] and in assay [9] was “no binding” in each case.

(Values after publication doi:10.1101/2021.11.19.469163.)
